The other results are listed elsewhere or left out. Most values lie at the level of the controls, where differences are scatter.

Amino acid sequences for entries named in this document (tags omitted). A change or cut given only in a name is not applied to a line headed by its entry.
UniProt Q92620: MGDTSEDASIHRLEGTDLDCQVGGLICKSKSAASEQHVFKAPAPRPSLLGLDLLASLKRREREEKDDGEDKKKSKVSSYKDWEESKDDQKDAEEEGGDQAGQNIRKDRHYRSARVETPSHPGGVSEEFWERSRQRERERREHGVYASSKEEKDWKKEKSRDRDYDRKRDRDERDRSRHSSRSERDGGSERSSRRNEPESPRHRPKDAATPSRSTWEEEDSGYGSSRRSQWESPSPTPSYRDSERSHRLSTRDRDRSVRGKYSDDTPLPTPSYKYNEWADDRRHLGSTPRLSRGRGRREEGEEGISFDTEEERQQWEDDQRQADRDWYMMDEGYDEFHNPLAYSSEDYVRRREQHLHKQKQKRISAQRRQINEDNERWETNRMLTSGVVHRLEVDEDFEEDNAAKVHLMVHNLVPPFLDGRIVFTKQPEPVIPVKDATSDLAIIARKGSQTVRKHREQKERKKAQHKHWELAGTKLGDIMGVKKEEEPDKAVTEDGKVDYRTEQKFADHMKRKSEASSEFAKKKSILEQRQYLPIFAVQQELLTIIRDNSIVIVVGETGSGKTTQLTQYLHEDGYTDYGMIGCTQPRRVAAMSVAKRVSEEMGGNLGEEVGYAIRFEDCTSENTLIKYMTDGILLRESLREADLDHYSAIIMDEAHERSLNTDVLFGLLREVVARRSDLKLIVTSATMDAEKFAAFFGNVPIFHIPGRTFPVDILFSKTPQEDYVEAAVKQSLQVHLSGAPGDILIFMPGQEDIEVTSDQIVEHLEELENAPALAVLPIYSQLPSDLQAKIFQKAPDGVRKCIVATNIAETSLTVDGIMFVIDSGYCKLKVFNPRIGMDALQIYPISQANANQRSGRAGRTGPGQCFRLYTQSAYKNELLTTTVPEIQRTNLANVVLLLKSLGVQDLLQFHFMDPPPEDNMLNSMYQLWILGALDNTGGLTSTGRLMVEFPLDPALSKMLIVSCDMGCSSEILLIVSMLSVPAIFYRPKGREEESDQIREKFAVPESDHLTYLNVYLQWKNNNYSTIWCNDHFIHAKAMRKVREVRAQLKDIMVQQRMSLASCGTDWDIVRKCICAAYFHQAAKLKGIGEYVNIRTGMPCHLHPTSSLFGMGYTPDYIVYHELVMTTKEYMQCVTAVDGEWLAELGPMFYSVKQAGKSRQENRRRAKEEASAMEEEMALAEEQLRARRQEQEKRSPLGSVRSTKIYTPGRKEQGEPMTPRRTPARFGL
UniProt Q969S8: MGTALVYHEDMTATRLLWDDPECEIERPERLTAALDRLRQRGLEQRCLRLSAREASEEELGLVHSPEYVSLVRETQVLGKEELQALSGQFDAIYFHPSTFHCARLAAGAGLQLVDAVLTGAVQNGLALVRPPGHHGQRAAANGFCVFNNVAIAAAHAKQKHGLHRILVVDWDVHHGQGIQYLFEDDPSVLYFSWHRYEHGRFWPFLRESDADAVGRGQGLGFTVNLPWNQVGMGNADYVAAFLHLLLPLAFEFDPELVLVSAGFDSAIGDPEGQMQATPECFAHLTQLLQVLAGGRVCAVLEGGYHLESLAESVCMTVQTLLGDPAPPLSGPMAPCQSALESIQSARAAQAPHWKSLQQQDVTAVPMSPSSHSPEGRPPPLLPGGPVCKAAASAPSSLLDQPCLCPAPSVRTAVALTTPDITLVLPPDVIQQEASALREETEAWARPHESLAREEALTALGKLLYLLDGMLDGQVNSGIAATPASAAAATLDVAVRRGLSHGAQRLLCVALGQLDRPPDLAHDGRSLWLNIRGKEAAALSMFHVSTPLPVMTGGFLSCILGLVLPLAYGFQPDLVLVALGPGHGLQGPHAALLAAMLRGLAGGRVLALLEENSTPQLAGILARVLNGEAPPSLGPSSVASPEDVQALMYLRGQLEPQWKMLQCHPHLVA
UniProt Q96B23: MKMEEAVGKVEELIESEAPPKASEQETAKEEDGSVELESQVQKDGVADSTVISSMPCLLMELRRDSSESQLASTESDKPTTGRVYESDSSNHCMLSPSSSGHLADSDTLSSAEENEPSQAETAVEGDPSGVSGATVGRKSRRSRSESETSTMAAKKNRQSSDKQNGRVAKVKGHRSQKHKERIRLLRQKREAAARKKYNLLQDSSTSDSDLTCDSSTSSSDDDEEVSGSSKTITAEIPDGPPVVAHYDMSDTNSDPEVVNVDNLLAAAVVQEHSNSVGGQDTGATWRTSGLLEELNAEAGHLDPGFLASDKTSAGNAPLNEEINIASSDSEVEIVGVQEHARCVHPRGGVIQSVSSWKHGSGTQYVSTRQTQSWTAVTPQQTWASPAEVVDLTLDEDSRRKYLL
UniProt Q96EK7: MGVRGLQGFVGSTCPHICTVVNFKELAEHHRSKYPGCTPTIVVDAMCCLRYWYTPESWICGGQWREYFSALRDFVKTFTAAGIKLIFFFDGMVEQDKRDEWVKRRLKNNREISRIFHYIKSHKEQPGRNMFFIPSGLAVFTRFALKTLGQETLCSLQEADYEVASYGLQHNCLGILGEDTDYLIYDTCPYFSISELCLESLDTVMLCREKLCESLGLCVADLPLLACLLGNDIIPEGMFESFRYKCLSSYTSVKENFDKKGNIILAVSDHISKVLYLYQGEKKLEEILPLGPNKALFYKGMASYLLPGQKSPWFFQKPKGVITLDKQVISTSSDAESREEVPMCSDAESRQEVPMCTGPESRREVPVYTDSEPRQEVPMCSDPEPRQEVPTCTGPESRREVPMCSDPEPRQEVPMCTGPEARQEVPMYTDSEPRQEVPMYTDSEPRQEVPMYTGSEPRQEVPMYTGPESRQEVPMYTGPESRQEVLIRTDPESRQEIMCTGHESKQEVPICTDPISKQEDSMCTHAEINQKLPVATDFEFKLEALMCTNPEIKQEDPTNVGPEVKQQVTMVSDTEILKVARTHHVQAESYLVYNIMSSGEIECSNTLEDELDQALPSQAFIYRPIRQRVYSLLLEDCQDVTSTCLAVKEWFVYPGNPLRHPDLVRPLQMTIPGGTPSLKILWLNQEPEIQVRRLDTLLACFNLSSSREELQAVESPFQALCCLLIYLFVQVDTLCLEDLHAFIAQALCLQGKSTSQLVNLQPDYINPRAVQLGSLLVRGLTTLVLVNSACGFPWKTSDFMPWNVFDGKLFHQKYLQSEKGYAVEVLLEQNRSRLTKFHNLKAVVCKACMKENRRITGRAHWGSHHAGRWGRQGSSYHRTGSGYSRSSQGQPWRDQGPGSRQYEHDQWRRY
UniProt Q96BZ9: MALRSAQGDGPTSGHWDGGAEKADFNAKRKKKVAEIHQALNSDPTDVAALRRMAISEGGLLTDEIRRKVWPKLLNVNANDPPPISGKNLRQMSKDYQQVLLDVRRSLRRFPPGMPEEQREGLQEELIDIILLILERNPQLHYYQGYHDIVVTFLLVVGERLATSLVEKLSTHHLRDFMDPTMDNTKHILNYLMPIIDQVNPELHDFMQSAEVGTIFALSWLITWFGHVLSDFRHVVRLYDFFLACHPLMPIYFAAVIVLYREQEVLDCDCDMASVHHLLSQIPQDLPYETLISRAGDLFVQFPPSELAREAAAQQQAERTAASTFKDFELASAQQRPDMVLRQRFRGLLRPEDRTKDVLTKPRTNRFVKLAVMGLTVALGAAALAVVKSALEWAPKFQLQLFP
UniProt Q93045: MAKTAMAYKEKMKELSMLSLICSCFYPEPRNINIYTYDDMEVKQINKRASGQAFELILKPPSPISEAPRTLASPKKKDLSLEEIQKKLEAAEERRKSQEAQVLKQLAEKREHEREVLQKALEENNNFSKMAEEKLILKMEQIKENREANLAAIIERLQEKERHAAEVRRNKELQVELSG
UniProt Q969K3: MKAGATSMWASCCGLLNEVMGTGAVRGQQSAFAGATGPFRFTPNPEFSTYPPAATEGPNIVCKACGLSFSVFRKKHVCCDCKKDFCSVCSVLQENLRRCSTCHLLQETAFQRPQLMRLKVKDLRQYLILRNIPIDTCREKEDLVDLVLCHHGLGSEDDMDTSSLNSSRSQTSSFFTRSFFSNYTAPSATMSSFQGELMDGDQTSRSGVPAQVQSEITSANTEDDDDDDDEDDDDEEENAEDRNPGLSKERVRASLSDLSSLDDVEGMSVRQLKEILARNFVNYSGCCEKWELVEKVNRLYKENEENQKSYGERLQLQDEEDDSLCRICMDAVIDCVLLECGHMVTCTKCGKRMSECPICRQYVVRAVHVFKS
UniProt Q969X0: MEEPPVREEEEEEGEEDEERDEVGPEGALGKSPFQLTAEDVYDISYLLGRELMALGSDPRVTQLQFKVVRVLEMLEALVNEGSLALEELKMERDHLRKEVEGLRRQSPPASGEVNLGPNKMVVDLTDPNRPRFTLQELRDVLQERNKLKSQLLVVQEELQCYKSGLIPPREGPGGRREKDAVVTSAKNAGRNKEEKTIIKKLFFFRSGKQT
UniProt Q96EU6: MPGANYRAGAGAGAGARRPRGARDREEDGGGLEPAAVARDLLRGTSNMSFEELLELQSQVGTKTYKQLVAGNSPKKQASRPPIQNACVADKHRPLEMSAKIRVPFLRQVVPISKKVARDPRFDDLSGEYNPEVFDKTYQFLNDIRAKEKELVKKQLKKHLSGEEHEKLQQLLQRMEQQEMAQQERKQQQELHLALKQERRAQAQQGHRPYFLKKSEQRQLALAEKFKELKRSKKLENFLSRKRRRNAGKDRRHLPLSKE
UniProt Q92623: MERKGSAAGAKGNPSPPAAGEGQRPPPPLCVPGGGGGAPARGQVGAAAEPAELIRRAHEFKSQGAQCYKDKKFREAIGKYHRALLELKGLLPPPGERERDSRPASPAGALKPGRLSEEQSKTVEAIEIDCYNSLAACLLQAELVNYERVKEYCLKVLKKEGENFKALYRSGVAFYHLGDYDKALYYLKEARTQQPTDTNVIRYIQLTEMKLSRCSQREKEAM
UniProt Q96E14: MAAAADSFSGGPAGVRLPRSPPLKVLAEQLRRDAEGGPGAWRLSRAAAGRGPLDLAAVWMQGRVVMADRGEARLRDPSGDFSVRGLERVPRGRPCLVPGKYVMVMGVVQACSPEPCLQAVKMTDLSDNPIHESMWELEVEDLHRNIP
UniProt Q93052: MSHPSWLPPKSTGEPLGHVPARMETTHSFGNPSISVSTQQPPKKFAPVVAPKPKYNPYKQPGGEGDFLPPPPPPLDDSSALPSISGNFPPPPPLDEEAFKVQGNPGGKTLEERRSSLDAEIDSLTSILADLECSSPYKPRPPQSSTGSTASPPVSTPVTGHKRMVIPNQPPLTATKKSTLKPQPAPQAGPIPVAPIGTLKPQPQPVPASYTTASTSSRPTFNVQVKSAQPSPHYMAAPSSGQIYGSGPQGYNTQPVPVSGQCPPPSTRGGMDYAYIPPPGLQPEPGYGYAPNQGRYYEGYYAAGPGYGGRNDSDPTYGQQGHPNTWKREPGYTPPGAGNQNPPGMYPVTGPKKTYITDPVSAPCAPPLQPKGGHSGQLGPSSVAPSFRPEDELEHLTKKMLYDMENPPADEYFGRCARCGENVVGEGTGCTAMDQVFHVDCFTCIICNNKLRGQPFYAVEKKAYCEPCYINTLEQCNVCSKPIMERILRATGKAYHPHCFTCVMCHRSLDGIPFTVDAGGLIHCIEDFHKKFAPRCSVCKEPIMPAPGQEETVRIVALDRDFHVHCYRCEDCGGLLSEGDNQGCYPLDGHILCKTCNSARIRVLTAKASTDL
UniProt Q96BX8: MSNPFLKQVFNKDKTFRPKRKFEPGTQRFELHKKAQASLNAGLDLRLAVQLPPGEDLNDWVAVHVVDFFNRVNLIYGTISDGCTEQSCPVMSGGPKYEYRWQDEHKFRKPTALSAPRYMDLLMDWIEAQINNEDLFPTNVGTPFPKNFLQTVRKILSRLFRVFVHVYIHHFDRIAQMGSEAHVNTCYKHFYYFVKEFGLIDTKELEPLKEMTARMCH
UniProt Q96A47: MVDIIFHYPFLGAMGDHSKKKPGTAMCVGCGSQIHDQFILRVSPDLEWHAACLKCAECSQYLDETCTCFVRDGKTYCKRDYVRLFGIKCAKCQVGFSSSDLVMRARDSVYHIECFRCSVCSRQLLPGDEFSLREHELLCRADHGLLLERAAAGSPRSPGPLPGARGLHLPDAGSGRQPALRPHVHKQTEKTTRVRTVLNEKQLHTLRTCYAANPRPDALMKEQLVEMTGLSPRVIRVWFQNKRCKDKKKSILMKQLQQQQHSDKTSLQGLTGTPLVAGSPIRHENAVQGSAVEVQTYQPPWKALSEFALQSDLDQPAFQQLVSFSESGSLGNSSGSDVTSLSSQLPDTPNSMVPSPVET
UniProt Q96D15: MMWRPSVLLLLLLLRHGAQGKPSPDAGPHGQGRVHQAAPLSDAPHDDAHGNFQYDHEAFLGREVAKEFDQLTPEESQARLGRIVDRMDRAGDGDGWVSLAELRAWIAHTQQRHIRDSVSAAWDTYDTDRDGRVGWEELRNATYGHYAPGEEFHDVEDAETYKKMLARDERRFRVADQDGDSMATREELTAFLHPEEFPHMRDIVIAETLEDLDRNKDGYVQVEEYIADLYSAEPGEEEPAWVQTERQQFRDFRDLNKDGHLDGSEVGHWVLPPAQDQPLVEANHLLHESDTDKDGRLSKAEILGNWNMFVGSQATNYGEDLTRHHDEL

Compound in this experiment: Cc1nc(Nc2ncc(C(=O)Nc3c(C)cccc3Cl)s2)cc(N2CCN(CCO)CC2)n1 [dasatinib]
Briefly: log2 fold change of tryptic peptide abundance, ligand vs vehicle (limited proteolysis) (log2 ratio); higher = more trypsin-susceptible (destabilized). The note with it: ligand concentration: 5 uM; sample: K562 cleared lysate.
For “ENTR1 (peptide sequence: NLGLSKEDPASR, peptide start residue: 119) (UniProt Q96C92)”, the log2 fold change was -0.42.

Regarding “UniProt Q96DE5 (peptide sequence: KALFTYPK, peptide start residue: 33)”, the log2 fold change was -0.15.

Take “KIFAP3 (peptide sequence: WHNSQWLEMVESR, peptide start residue: 678) (UniProt Q92845)”: the log2 fold change is 0.686.

For “DHX38 (peptide sequence: YMTDGILLR, peptide start residue: 627) (UniProt Q92620)”, the log2 fold change came out at 0.0897.

For “HDAC10 (peptide sequence: EETEAWARPHESLAR, peptide start residue: 439) (UniProt Q969S8)”, the log2 fold change was -1.02.

“UniProt Q96BN8 (peptide sequence: AADEIEKEK, peptide start residue: 58)”: the log2 fold change was found to be 0.145.

Consider “HSPBAP1 (peptide sequence: INVVNPDLK, peptide start residue: 220) (UniProt Q96EW2)”, for which the log2 fold change was -0.292.

For “C18orf25 (peptide sequence: SRSESETSTMAAKK, peptide start residue: 143) (UniProt Q96B23)”, the log2 fold change is -0.35.

“UniProt Q96EK7 (peptide sequence: QYEHDQWR, peptide start residue: 901)”: the log2 fold change is -0.149.

Take “PINX1 (peptide sequence: KLQKPVEIAEDATLEETLVK, peptide start residue: 301) (UniProt Q96BK5)”: the log2 fold change was -0.631.

Consider “PHKB (peptide sequence: EAFNEFQKDQSR, peptide start residue: 1030) (UniProt Q93100)”, for which the log2 fold change is -0.371.

Consider “TBC1D20 (peptide sequence: MAISEGGLLTDEIRR, peptide start residue: 53) (UniProt Q96BZ9)”, for which the log2 fold change came out at 0.288.

For the target “UniProt Q96A08 (peptide sequence: ESYSIYIYK, peptide start residue: 37)”, the log2 fold change was determined as 0.212.

As for “POP5 (peptide sequence: VHGTFGAAACSIGFAVR, peptide start residue: 40) (UniProt Q969H6)”, the log2 fold change is -0.223.

Take “KTI12 (peptide sequence: FTRPLTMAELSR, peptide start residue: 309) (UniProt Q96EK9)”: the log2 fold change is -0.142.

“STMN2 (peptide sequence: ALEENNNFSKMAEEK, peptide start residue: 120) (UniProt Q93045)”: the log2 fold change is -0.277.

As to “RNF34 (peptide sequence: SQTSSFFTR, peptide start residue: 169) (UniProt Q969K3)”, the log2 fold change turned out to be 0.077.

On to “NEIL2 (peptide sequence: FQGRPQHTQVYQK, peptide start residue: 276) (UniProt Q969S2)”, for which the log2 fold change came to 0.425.

Regarding “DPF3 (peptide sequence: EEESIQEIQR, peptide start residue: 135) (UniProt Q92784)”, the log2 fold change was found to be 0.117.

“RILPL2 (peptide sequence: ELMALGSDPR, peptide start residue: 51) (UniProt Q969X0)”: the log2 fold change worked out at 0.194.

Take “UniProt Q96EU6 (peptide sequence: DREEDGGGLEPAAVAR, peptide start residue: 24)”: the log2 fold change is -0.158.

Consider “GLMN (peptide sequence: STSEENIGIK, peptide start residue: 585) (UniProt Q92990)”, for which the log2 fold change was -0.0853.

As to “UniProt Q92623 (peptide sequence: PASPAGALKPGR, peptide start residue: 103)”, the log2 fold change was -0.0188.

Turning to “OSBP2 (peptide sequence: GRWDEANTEK, peptide start residue: 832) (UniProt Q969R2)”, the log2 fold change was -0.448.

Turning to “ARHGEF2 (peptide sequence: LRESEQAR, peptide start residue: 839) (UniProt Q92974)”, the log2 fold change was -0.35.

Take “RMI2 (peptide sequence: GRPCLVPGK, peptide start residue: 92) (UniProt Q96E14)”: the log2 fold change worked out at 0.119.

On to “LPP (peptide sequence: KFAPRCSVCK, peptide start residue: 531) (UniProt Q93052)”, for which the log2 fold change is -0.0306.

For the target “UniProt Q96BX8 (peptide sequence: IAQMGSEAHVNTCYK, peptide start residue: 174)”, the log2 fold change worked out at 0.597.

Turning to “ISL2 (peptide sequence: VSPDLEWHAACLK, peptide start residue: 42) (UniProt Q96A47)”, the log2 fold change worked out at 0.415.

For the target “RCN3 (peptide sequence: EELTAFLHPEEFPHMR, peptide start residue: 186) (UniProt Q96D15)”, the log2 fold change is 0.188.

Turning to “ISOC2 (peptide sequence: GLQVHVVVDACSSR, peptide start residue: 126) (UniProt Q96AB3)”, the log2 fold change was -0.161.

Consider “ANKS1A (peptide sequence: RVGYLTGLPTTNSR, peptide start residue: 565) (UniProt Q92625)”, for which the log2 fold change is -0.497.

For the target “UniProt Q969W8 (peptide sequence: HPSRLTHHQK, peptide start residue: 210)”, the log2 fold change is -0.411.

In the case of “OSTF1 (peptide sequence: LGDTALHAAAWK, peptide start residue: 139) (UniProt Q92882)”, the log2 fold change is -0.437.

For the target “SLC10A4 (peptide sequence: KLKEEEMADTSYGTVK, peptide start residue: 408) (UniProt Q96EP9)”, the log2 fold change stood at 0.124.

As for “UniProt Q92841 (peptide sequence: RDGWPAMCIHGDK, peptide start residue: 440)”, the log2 fold change came to 0.315.

“UniProt Q96DY7 (peptide sequence: ASVCHYHGIEYCLDDR, peptide start residue: 651)”: the log2 fold change was -0.157.
